Source: patent US20170275630
For part of these data: At least one result comes from cells or an extract, where the contact may be indirect. For part of these data: Negatives hold for the conditions tested. For part of these data: Weaker means in comparison with the reference protein, sequence or condition of that experiment.

Legend:
[1] = biological target: HGF receptor (c-Met, MET) (UniProt P08581); assay: activity in cells; conditions: protein in cells, folded or branched DNA
[2] = biological target: HGF receptor (c-Met, MET) (UniProt P08581); assay: flow cytometry; conditions: SNU-5 cells, 21 C, 15 min, protein on the cell surface

**Q.** How did the “functional effect of the aptamer” value ([1]; induces c-Met phosphorylation in A549, lost when Comp_A/Comp_B block dimer formation, variant of SL1 (Stem-Loop1), dose not given here) turn out when “CGATCAGTCTAGCATCCATCTATCAGGCTGGATGGTAGCTCGGTCGGGGTGGGTGGGTTGGCAAGTCTGAT / GATGGATGCTAGACTGATCGTATCAGGCTGGATGGTAGCTCGGTCGGGGTGGGTGGGTTGGCAAGTCTGAT [SL1_A/SL1_B dimer]” was run?
**A.** active

**Q.** Which “functional effect of the aptamer” value ([1]; variant of SL1 dimer_5, dose not given here) does the source give for “ATCAGGCTGGATGGTAGCTCGGTCGGGGTGGGTGGGTTGGCAAGTCTGATTTTTTTTTTTCGTGTCACGGATGGTAGCTCGGTCGGGGTGGGTGGGTTGGCAGTGACACG [SL1 dimer_10 (ss10)]” here?
**A.** active

**Q.** Does “TAGTCTGAACGGTTGGGTGGGTGGGGCTGGCTCGATGGTAGGTCGGACTA [Stem-Loop1 reverse sequence]” bind ([2]; 100 nM, same as untreated cells, label: FITC, single-stranded DNA, variant of SL1 (Stem-Loop1))?
**A.** no binding

**Q.** Does “GGATGGTAGCTCGGTCGGGGTGGGTGGGTTGG [G-loop]” bind ([2]; 100 nM, above cell control, below SL1, label: FITC, folded or branched DNA, variant of SL1 (Stem-Loop1))?
**A.** binds more weakly

**Q.** Does “ATCAGGCTGGATGGTAGCTCGGTCGGGGTGGGTGGGTTGGCAAGTCTGAT [SL1 (Stem-Loop1)]” bind ([2]; signal rises from 2.5 nM, almost no change at 1000 nM, label: FITC (binding assays), folded or branched DNA)?
**A.** binds

**Q.** What about the “functional effect of the aptamer” value ([1]; dose-dependent inhibition of c-Met phosphorylation by 110 pM HGF, A549, SL1 1-1000 nM, 1 uM also inhibits SUIT-2 migration) of the same sequence?
**A.** active
